# Primary screen of a compound library

From ChEMBL document CHEMBL3988442, “University of Dundee, Small-Polar-MMV Screening Library” (2021).

Mtb glucose medium: 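Whole-cell growth test on Mycobacterium tuberculosis, read after 3 days in glucose-containing 7H9 medium; the read-out is not stated. Compounds at 50 µM. The record gives no direction; compounds that gave an IC50 in retests scored well above the rest, so higher reads as more growth inhibition. Size under these conditions: about 69,000 compounds, about 760 of them at 50% or above in at least one test.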
Mtb cholesterol medium: 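Growth of Mycobacterium tuberculosis over 4 days (cholesterol / DPPC medium with tyloxapol); the read-out is not stated. Tested at 50 µM. The record gives no direction; compounds that gave an IC50 in retests scored well above the rest, so higher reads as more growth inhibition. About 69,000 compounds were tested under these conditions; 0.54% (about 370) showed 50% or more at least once.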

Values are the deposited “Percent Effect”, in %. The controls that fix the scale are not given in the record; negative values are as filed. Compounds were drawn at random from those tested, without regard to their results. Two or more numbers in one place are separate tests of the same structure; such repeats can differ widely.

compound	Mtb glucose medium	Mtb cholesterol medium
CC(C)n1c2ccccc2c2c1cc(C(=O)N(C)C)n2S(C)(=O)=O	-22.87	-9.7
Cc1cc(C)n(-c2nc(C(=O)NCCN3CCC(C)CC3)cs2)n1	19.93	12.07
CNC(=O)C1CN(C(C)C)CCN1c1ncccn1 (stereo not drawn)	6.919	-15.23
O=C(CN1CCCC(Cn2cncn2)C1)NCc1ccco1 (stereo not drawn)	0.3277	-7.163
Cc1cc(-n2cccn2)ccc1CN1CCC(O)(CN2CCCCC2)C1 (stereo not drawn)	-17.14	-9.035
CCn1c(SCC(=O)N2CCCC2)nc2cc(C)[nH]c2c1=O	-74.7	-49.38
CC(C)c1cc(N2CCC(CCC(=O)NC3CC3)CC2)n2nccc2n1	-22.24	-26.55
Cc1ccccc1C(C(=O)N(C)CCc1cn[nH]c1)N(C)C (stereo not drawn)	-1.151	2.098
CCCOc1ccc(Cl)cc1NC(=O)NCCC(=O)N(C)C	31.15	1.755
O=C(CCC1CCCO1)NCc1ccccc1Cn1cncn1 (stereo not drawn)	33.96	3.791
Cc1noc(OCC(=O)N2CCCCC2C)n1 (stereo not drawn)	-1.358	-9.395
CCN(C(c1cccnc1)c1ccc(F)cc1F)S(C)(=O)=O (stereo not drawn)	-2.57 & 6.681	-10.28
Cc1ccccc1N1CCCN(C(=O)c2nn(C)cc2Cl)CC1	2.978	13.22
CC(C)NC(=O)O[C@H]1COCCN(c2nc3ccccc3s2)C1	4.53 & 17.95	1.193
COc1c(CNC2CCN(c3ccccn3)CC2)c(C(C)C)nn1C	5.83	8.926
CCN(Cc1c(F)cccc1F)Cn1nc(C)c2c(C)onc2c1=O	2.301	-15.52
Cc1ccc(S(=O)(=O)NCCNc2cc(-n3cccc3)ncn2)c(C)c1	8.152 & 8.414	6.323
CN(C)C(=O)c1cc2c(s1)CCN(C(=O)CCCN1CCCCC1)C2	-32.16	27.06
Cc1cc(C(=O)N2CCC3(CC2)CC(c2cccnc2)C(=O)N3C)no1.O=C(O)C(F)(F)F (stereo not drawn)	-5.945 & 1.003	-13.27
O=C(CN1CCC(N2CCNC2=O)CC1)NCC(F)(F)F	-15.34	-3.991
CCc1nnc(CN2CCOC(Cn3cc(C)cn3)C2)o1 (stereo not drawn)	24.2	6.146
O=C1CC(c2cccs2)c2snc(C(=O)O)c2N1 (stereo not drawn)	18.76 & -2.642	6.284
CC(C)n1cnnc1CN(C)C(=O)c1cccnc1O	2.207	-17.35
CSCCC(Nc1nc(C)cc(C)n1)C(=O)NC1CC1 (stereo not drawn)	23.44	10.12
COc1cccc(-c2nc(CNCCCn3cccn3)cs2)c1	43.27	34.73
O=C(CCCNc1ncccn1)N1CCCC(n2cncn2)C1 (stereo not drawn)	1.11	7.554
O=C1CC2(CCN(C(=O)C3CCCCC3)C2)Nc2ccccc2N1 (stereo not drawn)	22.32	-1.752
CCNC(=O)[C@@H]1C[C@@H](N)CN1Cc1ccc2cccc(Cl)c2n1	-56.24	-68.85
Cc1nccn1C1CCCN(C(=O)c2cccc3c2OCO3)C1 (stereo not drawn)	6.254	4.714
CC(C)N[C@@H]1CC[C@@H]1NC(=O)c1ccccc1OC(F)(F)C(F)F	-1.572 & 2.644	-9.192
CC(=O)N1CCc2c(nc(N(C)C)nc2NC(C)Cc2cccs2)C1 (stereo not drawn)	16.24	12.35
CCNc1ccc(-c2ccnc3c2ccn3C)nn1	-9.724	3.464
CN1C[C@@H](N)C[C@H]1C(=O)N1CCC(Cc2ccc(F)cc2)CC1	18.83	20.25
[H][C@]12CC[C@]([H])(CN(Cc3nc4ccccc4n3C)C1)N(CCOC)C2	0.5074	0.655 & 11.56
CS(=O)(=O)c1ccc(CNCC2CCN(CCO)CC2)cc1	-12.75 & -17.32	-26.42
Cc1occc1C(=O)N1CCCN(Cc2ncc(Cl)n2C)CC1	-19.53 & 2.161	-28.53
O=c1c2ccccc2nnn1CN(CC1CCOC1)C1CC1 (stereo not drawn)	-20.16	-0.1967
CN(C)C(=O)c1cccc(CN2CCN(CC(O)C(C)(C)C)CC2)c1 (stereo not drawn)	-46.1 & -3.672	6.057
CC(Cn1cccn1)NC(=O)Nc1ccc(N2CCCCC2)nc1 (stereo not drawn)	10.52	-8.001
CS(=O)(=O)N[C@@H]1CN(Cc2ccc3ccccc3c2)C[C@H]1O	14.81	1.752 & 0.6296
Cc1ccc2[nH]c([C@H]3CCN(CC4CCCCC4)C3)nc2c1	-18.24 & 10.67	-13.42
CCOC(=O)CNC(=O)C1CN(C(=O)c2cnccn2)C1	1.837 & 27.12	0.7501
COCC(=O)N1Cc2nccn2CC(COc2cccnc2)C1 (stereo not drawn)	15.58	-7.392
CN(C)C(Cn1ccnc1-c1nccn1C)c1ccccc1Cl (stereo not drawn)	-6.868	-10.88
COc1ccc(Cl)cc1Nc1nc(N)c(C(C)=O)s1	14.97	-10.46
c1nc(N2CCCC2Cn2cncn2)c2ccsc2n1 (stereo not drawn)	-7.425	2.119
CN(Cc1nc2c(cnn2C)c(=O)[nH]1)Cc1ccccc1Cl	-19.59	5.256
COc1ccccc1OCC(=O)NS(=O)(=O)c1ccc(Cl)cc1F	4.773 & -13.2	14.83
CN1CCOCC12CCN(C(=O)C1CCC1)CC2.O=C(O)C(F)(F)F	6.801	-13.38 & -9.883
Cc1cc2nc(O)c(O)nc2cc1S(=O)(=O)NC1CC1	-7.282	-12.42
[H][C@]12CC[C@]([H])(CN(C(=O)CCS(C)(=O)=O)C1)N(Cc1ccccc1)C2=O	44.93 & 40.08	13.66
O=C(c1cccnc1)N1CCC(c2nc(O)cc(-c3ccncc3)n2)C1 (stereo not drawn)	-24.66	-6.488
COCC1CC2(CCN(Cc3ccco3)CC2)CN1C(C)C.O=C(O)C(F)(F)F.O=C(O)C(F)(F)F (stereo not drawn)	5.015	-5.215
[H][C@@]12CN(C(=O)c3cscn3)C[C@]1([H])OCCN2Cc1csc(C)n1	35.98 & -0.1839	3.349
COc1ccnc(NC(Cc2ccccc2)C(N)=O)n1 (stereo not drawn)	6.804	-4.487
Cc1nc(N2CCOCC2)nc2c1CN(C(=O)C(C)C)CC2	-11.43	-8.425 & -10.88
Cc1nc(-c2cncnc2C2CCCNC2)no1.Cl.Cl (stereo not drawn)	-4.085	-4.547 & -5.411
CC(C)c1nnc2n1CCN(Cc1csc(-c3cnn(C)c3)n1)C2	-19.35	-30.7
O=C(c1ccc(N2CCCC2)nn1)N1CCCC(n2cccn2)C1 (stereo not drawn)	6.312	-10.84
CC(CNCC1(S(C)(=O)=O)CCOCC1)c1ccc(F)cc1 (stereo not drawn)	5.585 & -3.251	-17.26
COc1ncccc1CNC(=O)C1CC(=O)N(C)C1 (stereo not drawn)	-31.24 & -10.79	-7.485
[H][C@@]12C[C@H](O)CCN1C(=O)CN(CCSC(C)(C)C)C2=O	-10.82	13.26
CCOc1ccnc(N2CCN(C(=O)c3cc[nH]n3)CC2)n1	-2.306	6.409
Cc1nc(S(=O)(=O)NCCC(=O)NCc2ccsc2)cn1C	6.92	-1.515